# Test results taken from the supplement of paper PMC8728848.
# This is one part of the list.
# Experiments:
# Test in all cases: glycan array binding signal (z-score within array); higher = stronger binding
# Conditions in all cases: glycan notation: IUPAC condensed, linker removed
# [1] = molecular target: Neu5Ac(a2-3)Gal(b1-3)GlcNAc(b1-6)GalNAc
# Procedure, shortened: (§1)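 The binding signal is a Z-score computed within each array. Data were drawn from 3228 arrays in the Consortium for Functional Glycomics database, restricted to those with a known protein sequence. Scores were averaged over arrays of the same protein sequence at different concentrations or buffers, and over linkers, and negative values can be taken as non-binding.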
# [2] = molecular target: Neu5Ac(a2-3)Gal(b1-3)GlcNAc6S
# Procedure, shortened: as §1
# [3] = molecular target: Neu5Ac(a2-3)Gal(b1-3)[Fuc(a1-4)]GlcNAc
# Procedure, shortened: as §1
# [4] = molecular target: Neu5Ac(a2-3)Gal(b1-3)[Fuc(a1-4)]GlcNAc(b1-3)Gal(b1-3)[Fuc(a1-4)]GlcNAc
# Procedure, shortened: as §1
# [5] = molecular target: Neu5Ac(a2-3)Gal(b1-3)[Fuc(a1-4)]GlcNAc(b1-3)Gal(b1-4)[Fuc(a1-3)]GlcNAc
# Procedure, shortened: as §1
# [6] = molecular target: Neu5Ac(a2-3)Gal(b1-3)[GlcNAc(b1-6)]GalNAc
# Procedure, shortened: as §1
# [7] = molecular target: Neu5Ac(a2-3)Gal(b1-3)[Neu5Ac(a2-6)]GalNAc
# Procedure, shortened: as §1
# [8] = molecular target: Neu5Ac(a2-3)Gal(b1-3)[Neu5Ac(a2-6)]GlcNAc(b1-3)[Fuc(a1-3)[Gal(b1-4)]GlcNAc(b1-6)]Gal(b1-4)Glc
# Procedure, shortened: as §1
# [9] = molecular target: Neu5Ac(a2-3)Gal(b1-3)]Neu5Ac(a2-3)Gal(b1-4)]GlcNAc
# Procedure, shortened: as §1
# Neu5Ac(a2-3)Gal(b1-4)Glc = molecular target: Neu5Ac(a2-3)Gal(b1-4)Glc
# Procedure, shortened: as §1
# [10] = molecular target: Neu5Ac(a2-3)Gal(b1-4)GlcNAc
# Procedure, shortened: as §1
# [11] = molecular target: Neu5Ac(a2-3)Gal(b1-4)GlcNAc(b1-2)Man
# Procedure, shortened: as §1
# [12] = molecular target: Neu5Ac(a2-3)Gal(b1-4)GlcNAc(b1-2)Man(a1-3)[GlcNAc(b1-4)][Neu5Ac(a2-3)Gal(b1-4)GlcNAc(b1-2)Man(a1-6)]Man(b1-4)GlcNAc(b1-4)GlcNAc
# Procedure, shortened: as §1
# [13] = molecular target: Neu5Ac(a2-3)Gal(b1-4)GlcNAc(b1-2)Man(a1-3)[Neu5Ac(a2-3)Gal(b1-4)GlcNAc(b1-2)Man(a1-6)]Man(b1-4)GlcNAc(b1-4)GlcNAc
# Procedure, shortened: as §1
# [14] = molecular target: Neu5Ac(a2-3)Gal(b1-4)GlcNAc(b1-2)Man(a1-3)[Neu5Ac(a2-3)Gal(b1-4)GlcNAc(b1-2)Man(a1-6)]Man(b1-4)GlcNAc(b1-4)[Fuc(a1-6)]GlcNAc
# Procedure, shortened: as §1
# [15] = molecular target: Neu5Ac(a2-3)Gal(b1-4)GlcNAc(b1-2)Man(a1-3)[Neu5Ac(a2-6)Gal(b1-4)GlcNAc(b1-2)Man(a1-6)]Man(b1-4)GlcNAc(b1-4)GlcNAc
# Procedure, shortened: as §1
# [16] = molecular target: Neu5Ac(a2-3)Gal(b1-4)GlcNAc(b1-2)[Neu5Ac(a2-3)Gal(b1-4)GlcNAc(b1-4)]Man(a1-3)[GlcNAc(b1-4)][Neu5Ac(a2-3)Gal(b1-4)GlcNAc(b1-2)[Neu5Ac(a2-3)Gal(b1-4)GlcNAc(b1-6)]Man(a1-6)]Man(b1-4)GlcNAc(b1-4)GlcNAc
# Procedure, shortened: as §1
# [17] = molecular target: Neu5Ac(a2-3)Gal(b1-4)GlcNAc(b1-2)[Neu5Ac(a2-3)Gal(b1-4)GlcNAc(b1-4)]Man(a1-3)[GlcNAc(b1-4)][Neu5Ac(a2-3)Gal(b1-4)GlcNAc(b1-4)Man(a1-6)]Man(b1-4)GlcNAc(b1-4)GlcNAc
# Procedure, shortened: as §1
# [18] = molecular target: Neu5Ac(a2-3)Gal(b1-4)GlcNAc(b1-2)[Neu5Ac(a2-3)Gal(b1-4)GlcNAc(b1-6)]Man(a1-6)[Neu5Ac(a2-3)Gal(b1-4)GlcNAc(b1-2)Man(a1-3)][GlcNAc(b1-4)]Man(b1-4)GlcNAc(b1-4)GlcNAc
# Procedure, shortened: as §1
# [19] = molecular target: Neu5Ac(a2-3)Gal(b1-4)GlcNAc(b1-3)Gal
# Procedure, shortened: as §1
# [20] = molecular target: Neu5Ac(a2-3)Gal(b1-4)GlcNAc(b1-3)Gal(b1-3)GlcNAc
# Procedure, shortened: as §1
# [21] = molecular target: Neu5Ac(a2-3)Gal(b1-4)GlcNAc(b1-3)Gal(b1-4)GlcNAc
# Procedure, shortened: as §1
# [22] = molecular target: Neu5Ac(a2-3)Gal(b1-4)GlcNAc(b1-3)Gal(b1-4)GlcNAc(b1-2)Man(a1-3)[Neu5Ac(a2-3)Gal(b1-4)GlcNAc(b1-3)Gal(b1-4)GlcNAc(b1-2)Man(a1-6)]Man(b1-4)GlcNAc(b1-4)GlcNAc
# Procedure, shortened: as §1
# [23] = molecular target: Neu5Ac(a2-3)Gal(b1-4)GlcNAc(b1-3)Gal(b1-4)GlcNAc(b1-3)Gal(b1-4)GlcNAc
# Procedure, shortened: as §1
# [24] = molecular target: Neu5Ac(a2-3)Gal(b1-4)GlcNAc(b1-3)Gal(b1-4)GlcNAc(b1-3)Gal(b1-4)GlcNAc(b1-2)Man(a1-3)[Neu5Ac(a2-3)Gal(b1-4)GlcNAc(b1-3)Gal(b1-4)GlcNAc(b1-3)Gal(b1-4)GlcNAc(b1-2)Man(a1-6)]GalNAc
# Procedure, shortened: as §1
# [25] = molecular target: Neu5Ac(a2-3)Gal(b1-4)GlcNAc(b1-3)Gal(b1-4)GlcNAc(b1-3)GalNAc
# Procedure, shortened: as §1
# [26] = molecular target: Neu5Ac(a2-3)Gal(b1-4)GlcNAc(b1-3)Gal(b1-4)GlcNAc(b1-3)[Neu5Ac(a2-3)Gal(b1-4)GlcNAc(b1-3)Gal(b1-4)GlcNAc(b1-6)]GalNAc
# Procedure, shortened: as §1
# [27] = molecular target: Neu5Ac(a2-3)Gal(b1-4)GlcNAc(b1-3)Gal(b1-4)GlcNAc(b1-6)[Gal(b1-3)]GalNAc
# Procedure, shortened: as §1
# [28] = molecular target: Neu5Ac(a2-3)Gal(b1-4)GlcNAc(b1-3)Gal(b1-4)[Fuc(a1-3)]GlcNAc
# Procedure, shortened: as §1
# [29] = molecular target: Neu5Ac(a2-3)Gal(b1-4)GlcNAc(b1-3)GalNAc
# Procedure, shortened: as §1
binder,measurement,setting,value
"BT4246 (Bacteroides thetaiotaomicron), Q89ZX5 (protein) MGSSHHHHHHENLYFQGHMASDYLDVVPPEQPNIDDAMSSPTRALGFLYSCYGGVSTDLPSAYLGEINSTTDEYVLPYSWNTDGYWGAYAFNTASSTNQDWLWGTTYQYIGQCYLFLQKLENAGSDIASDAEKEQWRAECQFLVAYYHFATLRRYGPIPITDSYIPMDTPTSEYNGRFHFDYCVDWIANQLDEAAKVLPANRTVTNEWGRATSTIAKAVKARLLLYAASPLWNGSFPYPNWQNENFETPGYGKALVSNTYDKSKWERALAACQEALTLATTSGDRELYDDDEYYSRQSLNLPFVPGVADVEDNKEFLKNVMKMRYAVSTRESEGNKEIIWGLSNQFDFYSRYPLRILKKSDGTWHAGYSGVSPTLYTFEHFYTANGKLPEKDLDFTPSSEWFESAGISSREDIIKLNVGREPRFYAWMAFDGGDYGTKFAAGSPLKLEMRNSEMHGYNPSLFNRDHSVTGFLTQKFVDPVTEFYTAGGSTSGTSAPTILFRLAELYLNVAECHAALGNTQEAIDALNPVRERAGIPKLTLADITNNMTIKDWVHNERFVELWNEGHRFFDVRRWAEGAKYFGANKREGLNAEVQSPTFEEFNKRTTVDAPYVWENRMYLNPVFYNEVYKNPQMVQAPGY",glycan array binding signal (z-score),[1],0.34
same,glycan array binding signal (z-score),[2],0.114
same,glycan array binding signal (z-score),[3],-0.203
same,glycan array binding signal (z-score),[4],0.707
same,glycan array binding signal (z-score),[5],0.647
same,glycan array binding signal (z-score),[6],-0.132
same,glycan array binding signal (z-score),[7],-0.758
same,glycan array binding signal (z-score),[8],-0.055
same,glycan array binding signal (z-score),[9],-0.658
same,glycan array binding signal (z-score),Neu5Ac(a2-3)Gal(b1-4)Glc,-0.458
same,glycan array binding signal (z-score),[10],1.26
same,glycan array binding signal (z-score),[11],-0.803
same,glycan array binding signal (z-score),[12],-1.16
same,glycan array binding signal (z-score),[13],0.72
same,glycan array binding signal (z-score),[14],0.004
same,glycan array binding signal (z-score),[15],1.6
same,glycan array binding signal (z-score),[16],0.49
same,glycan array binding signal (z-score),[17],-1.41
same,glycan array binding signal (z-score),[18],-0.263
same,glycan array binding signal (z-score),[19],-0.929
same,glycan array binding signal (z-score),[20],-0.03
same,glycan array binding signal (z-score),[21],-0.556
same,glycan array binding signal (z-score),[22],0.664
same,glycan array binding signal (z-score),[23],0.618
same,glycan array binding signal (z-score),[24],2.21
same,glycan array binding signal (z-score),[25],-1.15
same,glycan array binding signal (z-score),[26],0.468
same,glycan array binding signal (z-score),[27],0.439
same,glycan array binding signal (z-score),[28],1.87
same,glycan array binding signal (z-score),[29],-0.143

# Copied from the entries so far (two entries):
binder,measurement,setting,value
"BT4246 (Bacteroides thetaiotaomicron), Q89ZX5 (protein) MGSSHHHHHHENLYFQGHMASDYLDVVPPEQPNIDDAMSSPTRALGFLYSCYGGVSTDLPSAYLGEINSTTDEYVLPYSWNTDGYWGAYAFNTASSTNQDWLWGTTYQYIGQCYLFLQKLENAGSDIASDAEKEQWRAECQFLVAYYHFATLRRYGPIPITDSYIPMDTPTSEYNGRFHFDYCVDWIANQLDEAAKVLPANRTVTNEWGRATSTIAKAVKARLLLYAASPLWNGSFPYPNWQNENFETPGYGKALVSNTYDKSKWERALAACQEALTLATTSGDRELYDDDEYYSRQSLNLPFVPGVADVEDNKEFLKNVMKMRYAVSTRESEGNKEIIWGLSNQFDFYSRYPLRILKKSDGTWHAGYSGVSPTLYTFEHFYTANGKLPEKDLDFTPSSEWFESAGISSREDIIKLNVGREPRFYAWMAFDGGDYGTKFAAGSPLKLEMRNSEMHGYNPSLFNRDHSVTGFLTQKFVDPVTEFYTAGGSTSGTSAPTILFRLAELYLNVAECHAALGNTQEAIDALNPVRERAGIPKLTLADITNNMTIKDWVHNERFVELWNEGHRFFDVRRWAEGAKYFGANKREGLNAEVQSPTFEEFNKRTTVDAPYVWENRMYLNPVFYNEVYKNPQMVQAPGY",glycan array binding signal (z-score),[3],-0.203
same,glycan array binding signal (z-score),[4],0.707
